# Results from publication PMC6735515.
# Results are given in words; binding and its absence hold for the method and conditions named. Binding seen in cells or lysates may run through a third protein. Some results given as binding are weak or reduced against the parent protein; the word gives no strength.
# T1: Caveolin-1 (mouse (endogenous in mouse neutrophils)) (UniProt P49817)
# T1 sequence: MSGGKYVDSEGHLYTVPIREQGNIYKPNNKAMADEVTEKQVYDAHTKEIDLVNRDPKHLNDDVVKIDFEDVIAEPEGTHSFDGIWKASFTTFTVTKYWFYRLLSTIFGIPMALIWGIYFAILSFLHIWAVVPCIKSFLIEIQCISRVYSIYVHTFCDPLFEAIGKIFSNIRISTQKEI
# B1: Toll-like receptor 9 (receptor, UniProt Q9EQU3 26-1032)
# chain: LGTLPAFLPCELKPHGLVDCNWLFLKSVPRFSAAASCSNITRLSLISNRIHHLHNSDFVHLSNLRQLNLKWNCPPTGLSPLHFSCHMTIEPRTFLAMRTLEELNLSYNGITTVPRLPSSLVNLSLSHTNILVLDANSLAGLYSLRVLFMDGNCYYKNPCTGAVKVTPGALLGLSNLTHLSLKYNNLTKVPRQLPPSLEYLLVSYNLIVKLGPEDLANLTSLRVLDVGGNCRRCDHAPNPCIECGQKSLHLHPETFHHLSHLEGLVLKDSSLHTLNSSWFQGLVNLSVLDLSENFLYESITHTNAFQNLTRLRKLNLSFNYRKKVSFARLHLASSFKNLVSLQELNMNGIFFRLLNKYTLRWLADLPKLHTLHLQMNFINQAQLSIFGTFRALRFVDLSDNRISGPSTLSEATPEEADDAEQEELLSADPHPAPLSTPASKNFMDRCKNFKFTMDLSRNNLVTIKPEMFVNLSRLQCLSLSHNSIAQAVNGSQFLPLTNLQVLDLSHNKLDLYHWKSFSELPQLQALDLSYNSQPFSMKGIGHNFSFVTHLSMLQSLSLAHNDIHTRVSSHLNSNSVRFLDFSGNGMGRMWDEGGLYLHFFQGLSGLLKLDLSQNNLHILRPQNLDNLPKSLKLLSLRDNYLSFFNWTSLSFLPNLEVLDLAGNQLKALTNGTLPNGTLLQKLDVSSNSIVSVVPAFFALAVELKEVNLSHNILKTVDRSWFGPIVMNLTVLDVRSNPLHCACGAAFVDLLLEVQTKVPGLANGVKCGSPGQLQGRSIFAQDLRLCLDEVLSWDCFGLSLLAVAVGMVVPILHHLCGWDVWYCFHLCLAWLPLLARSRRSAQTLPYDAFVVFDKAQSAVADWVYNELRVRLEERRGRRALRLCLEDRDWLPGQTLFENLWASIYGSRKTLFVLAHTDRVSGLLRTSFLLAQQRLLEDRKDVVVLVILRPDAHRSRYVRLRQRLCRQSVLFWPQQPNGQGGFWAQLSTALTRDNRHFYNQNFCRGPTAE
# Columns and labels:
# [1] = target: T1, Caveolin-1 (mouse (endogenous in mouse neutrophils)); experiment: co-IP; whole cell lysates of neutrophils from non-treated mice (control conditions, no InP); immunoprecipitation with anti-Cav-1 or anti-TLR9 antibody, immunoblot for the other protein
# [2] = target: T1, Caveolin-1 (mouse (endogenous in mouse neutrophils)); experiment: co-IP; whole cell lysates of neutrophils from InP-treated mice (also mouse neutrophils treated with MPLA in vitro); immunoprecipitation with anti-Cav-1 or anti-TLR9 antibody, protein-G agarose, immunoblot for the other protein; control IgG
binder,measurement,setting,value
B1,binding,[1],binds weakly
same,binding,[2],binds
